Reference: publication PMC5964144
Results are given in words; binding and its absence hold for the method and conditions named. In cells and extracts the contact can be indirect. Binding calls can cover weak binding; strength is not graded here.

The chains behind the UniProt entries cited, without tags or fusion partners. Where a name states a change or a piece, a line headed by the entry shows the natural chain unless it says otherwise.
UniProt Q9NZH6: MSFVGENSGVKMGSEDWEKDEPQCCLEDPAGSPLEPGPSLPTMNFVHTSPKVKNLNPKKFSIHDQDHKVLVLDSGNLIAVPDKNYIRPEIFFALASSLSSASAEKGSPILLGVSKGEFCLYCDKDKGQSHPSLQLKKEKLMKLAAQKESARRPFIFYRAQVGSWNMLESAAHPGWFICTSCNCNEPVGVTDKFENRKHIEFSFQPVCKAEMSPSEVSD
UniProt P84022: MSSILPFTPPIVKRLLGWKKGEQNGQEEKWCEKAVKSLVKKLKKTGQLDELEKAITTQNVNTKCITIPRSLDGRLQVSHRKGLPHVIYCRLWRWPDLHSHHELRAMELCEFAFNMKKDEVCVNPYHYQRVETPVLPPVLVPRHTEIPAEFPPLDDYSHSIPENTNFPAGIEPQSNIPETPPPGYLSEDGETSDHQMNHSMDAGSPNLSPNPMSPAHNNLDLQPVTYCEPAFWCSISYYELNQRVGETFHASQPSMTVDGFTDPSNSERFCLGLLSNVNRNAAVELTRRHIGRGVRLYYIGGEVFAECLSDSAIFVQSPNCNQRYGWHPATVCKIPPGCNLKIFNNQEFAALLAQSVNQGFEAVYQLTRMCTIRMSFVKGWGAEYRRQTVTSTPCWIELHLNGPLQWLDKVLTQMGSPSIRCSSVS

Molecular target: Flag-tagged IL-37d (IL-37 isoform D) (human) (UniProt Q9NZH6)
Assay: co-IP; IL-37d-Flag and Myc-Smad3 co-transfected into HEK-293T cells; extracts in IP buffer (1.0% Nonidet P 40, 50 mM Tris-HCl pH 7.4, 50 mM EDTA, 150 mM NaCl, protease inhibitors); anti-FLAG M2 magnetic beads for 6 h, five washes; immunoblot with anti-Smad3 antibody

binding: binds
Substance: Myc-tagged Smad3 (from UniProt P84022 1-425)
